In patent US5627154A, “Calcium channel blocking polypeptides from Heteropoda venatoria” (Pfizer Inc., priority 1995, dated 1997):

Tested on: calcium channels
Details: read-out: IC50 values for blocking calcium channels; cerebellar granule cells from 8 day old rats, fura2 fluorescence, 37° C.

## COC(=O)C1=C(C)NC(C)=C(C(=O)OC)C1c1ccccc1[N+](=O)[O-] [Nifedipine]
  IC50: 33 nM
